Drawing on publication PMC10516600, this text covers binding for three molecules.

Assay [1] concerns the target T1, CRB3 (endogenous, MCF10A cells) (human (endogenous in MCF10A)) (UniProt Q9BUF7).
T1 sequence: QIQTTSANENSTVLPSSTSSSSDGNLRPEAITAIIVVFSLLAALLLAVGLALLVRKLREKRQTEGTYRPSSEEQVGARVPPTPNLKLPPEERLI
Nature of the assay: co-IP; endogenous proteins in MCF10A lysate (NP40 buffer), Dynabeads protein G kit, immunoblot; baits CRB3, Rab11 or GCP6; control shRNA and CRB3 knockdown cells.

The target in assay [2] is T2, exogenous CRB3b (CRB3-GFP) stably expressed in MCF10A cells (human) (UniProt Q9BUF7).
T2 sequence: T1 sequence
As to the kind of experiment: co-IP; MCF10A cells expressing exogenous CRB3b (CRB3-GFP); lysate in NP40 buffer, Dynabeads protein G kit, immunoblot; baits exogenous CRB3b or Rab11. (In western blotting, separated proteins are transferred to a membrane and probed.)

In assay [3] the target is Rab11 (endogenous, MCF10A cells) (human (endogenous in MCF10A)). Nature of the assay: co-IP; endogenous proteins in MCF10A lysate (NP40 buffer), Dynabeads protein G kit, immunoblot; baits CRB3, Rab11 or GCP6; control shRNA and CRB3 knockdown cells.
The target is the same in assay [4]. As to the kind of experiment: co-IP; MCF10A cells expressing exogenous CRB3b (CRB3-GFP); lysate in NP40 buffer, Dynabeads protein G kit, immunoblot; baits exogenous CRB3b or Rab11.

No constants are given. Whether binding was seen depends on the method and setting. In cells and extracts the contact can be indirect. A result given as binding can be weak or reduced; the word gives no strength. For some of these results: Tags and fused reporters may be left off the sequences shown.

With “Rab11 (endogenous, MCF10A cells) (human (endogenous in MCF10A))”, the binding entry in assay [1] and in assay [2] was “binds” throughout.

B1: CRB3 (endogenous, MCF10A cells) (protein, UniProt Q9BUF7 27-120)
chain: T1 sequence
On to B1, for which, in assay [3], the binding result is recorded as “binds”.

B2: exogenous CRB3b (CRB3-GFP) stably expressed in MCF10A cells (protein, UniProt Q9BUF7 27-120)
chain: T1 sequence
As for B2, the binding entry in assay [4] is given as “binds”.
